Source: PubChem BioAssay AID504791 (Drosophila RNAi Screening Center, 2011)
The deposit covers about 23,000 reagents; shown is a random part of those with a known target gene and a result. In the full data, 199 (0.86%) got an active call. 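Plate-scaled ratios behind the calls are not deposited; printed light signals are raw; many rows marked increased or decreased are still called inactive.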 The numbers tell different reagents against one gene apart. Names joined by + are all predicted targets of the reagent. Not given: the direction of the score.

Aim: 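Genes of the fly required for silencing by miRNA, siRNA or endo-siRNA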 (primary screen)
Cell system: Drosophila S2-derived reporter cells
Reagent: long dsRNA against Drosophila genes, about 150-250 ng dsRNA per well (siRNA assay); about 80-120 ng (miRNA assay)
Duration: about 5 days (siRNA assay); about 4 days (miRNA assay)
Conditions: copper sulfate induction of reporters: 25 µM (siRNA assay); 200 mM stated (miRNA assay), 1-2 days before reading
Measured: 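Per-well ratio of Renilla over firefly light, expressed relative to that plate's average ratio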
Call rule: 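a well was a first-pass pick when its plate-scaled ratio rose above 1.5 (siRNA assay) or 1.6 (miRNA assay), or dropped below 0.6; a gene counted only if two separate dsRNAs agreed on retest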

target	dsRNA no.	stable siRNA reporter change	stable assay Renilla, run 1 (luminescence)	stable assay firefly, run 1 (luminescence)	Call
barr	1	reporter ratio raised past the hit cutoff	9097	3.26e5	active
Reg-5	1		35180	2.32e6	inactive
CG31926	1		7993	3.89e5	inactive
Ras64B	1		6086	3.65e5	inactive
Klp98A	1		6303	5.58e5	inactive
Klp98A	2		10339	5.99e5	inactive
Adf1	1		5096	4.88e5	inactive
Adf1	2		43572	9.43e5	inactive
CG3939	1		5780	4.48e5	inactive
ND-B14.7	1		6826	5.35e5	inactive
phyl	1		5910	3.71e5	inactive
oc	1		5656	2.65e5	inactive
CG13494	1		6986	4.59e5	inactive
tty	1		7106	5.12e5	inactive
CG9164	1		4127	3.58e5	inactive
CG9164	2		8336	5.04e5	inactive
Gem4b + Gem4c + Glos	1		4975	3.11e5	inactive
Flo1	1		10234	4.55e5	inactive
Cnep1r1	1		5947	4.40e5	inactive
Rab3	1		7678	3.81e5	inactive
fsd	1		7076	3.83e5	inactive
ctp	1		6758	5.55e5	inactive
CG7335	1		7634	5.08e5	inactive
CG14837	1		7372	4.55e5	inactive
atl	1		7698	2.69e5	inactive
Mos	1		6631	2.88e5	inactive
bgcn	1		5495	2.97e5	inactive
bgcn	2		6042	3.15e5	inactive
CG2616	1		6239	3.29e5	inactive
CG8679	1		6250	3.23e5	inactive
Mst87F	1		6830	3.70e5	inactive
CG3156	1		8578	5.14e5	inactive
CG13069	1		6776	4.08e5	inactive
CG10481	1		6496	5.68e5	inactive
Cap-G	1		7175	4.99e5	inactive
Cap-G	2		6262	4.04e5	inactive
Cap-G	3		10094	3.69e5	inactive
CG11029	1		7562	3.75e5	inactive
Acox57D-p	1		1.93e5	3.96e5	inactive
CG17698	1		6859	4.01e5	inactive
apolpp	1		6264	3.07e5	inactive
CG42355	1		5468	4.27e5	inactive
Prp39	1		6798	4.41e5	inactive
if	1		4834	4.73e5	inactive
EMC1	1		10669	6.24e5	inactive
CG13658	1		6842	3.90e5	inactive
CG6481	1		6247	5.30e5	inactive
BBS1	1		4063	3.63e5	inactive
CG33462	1		3627	3.21e5	inactive
CG3045	1		7543	5.21e5	inactive
sit	1		6730	4.72e5	inactive
Cyp316a1	1		6499	3.75e5	inactive
CG6321	1		7274	4.28e5	inactive
Trap1	1		13528	1.66e6	inactive
CG8299	1		6659	4.21e5	inactive
Larp4B	1		4136	1.74e5	inactive
Larp4B	2		2239	2.10e5	inactive
Sh	1		3151	2.14e5	inactive
Sh	2		6371	4.33e5	inactive
Sh	3		5551	6.57e5	inactive
Sh	4		5528	5.36e5	inactive
Sh	5		5111	3.61e5	inactive
rt	1		6483	3.52e5	inactive
tub	1		3731	4.07e5	inactive
tub	2		3963	3.33e5	inactive
Eip63E	1		7027	3.20e5	inactive
Sec13	1		10911	2.91e5	inactive
CG2540	1		7086	3.28e5	inactive
CG3817	1		9047	4.25e5	inactive
hng2	1		7959	4.40e5	inactive
MESR6	1		8044	3.07e5	inactive
Gr58b	1		6364	3.21e5	inactive
frac	1		8396	4.41e5	inactive
Acp63F	1		6432	5.17e5	inactive
CG11474	1		10619	4.90e5	inactive
CG9130 + CG9133	1		6234	4.76e5	inactive
CG9130 + CG9133	2		10080	4.64e5	inactive
CG9130 + CG9133	3		9742	6.15e5	inactive
woc	1		7295	3.34e5	inactive
CR14798	1		5718	4.41e5	inactive
CG13884	1		5866	2.95e5	inactive
CG13492	1		6566	3.10e5	inactive
CG32846	1		4820	4.11e5	inactive

Ordered by “stable assay firefly, run 1 (luminescence)” (low to high): 8 of the entries above
target	dsRNA no.	stable siRNA reporter change	stable assay Renilla, run 1 (luminescence)	stable assay firefly, run 1 (luminescence)	Call
atl	1		7698	2.69e5	inactive
Mos	1		6631	2.88e5	inactive
Rab3	1		7678	3.81e5	inactive
fsd	1		7076	3.83e5	inactive
Cnep1r1	1		5947	4.40e5	inactive
CG14837	1		7372	4.55e5	inactive
CG7335	1		7634	5.08e5	inactive
ctp	1		6758	5.55e5	inactive
